Measured values as given in the supplement of paper PMC12823440, “Inhibitors supercharge kinase turnover through native proteolytic circuits” (Nature, 2025).
Structures can show the parent of a compound that is named as a salt. Some of the results follow. The calls rarely recur for the same compound in another form.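 Kinases were expressed as nanoluciferase fusions in K562 cells and luminescence was read every 4 h between 2 and 18 h as percent of control, DMSO set to 100% and a positive control to 0%. A time point counts as decreased when the signal drops significantly (2 sigma). The hit call is the authors' own, does not follow from the count of time points alone, and its rule is not shown.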

Sequences of proteins named here, by UniProt entry; tags and fusion partners are left off. A change or cut given only in a name is not applied to a line headed by its entry.
UniProt P48729: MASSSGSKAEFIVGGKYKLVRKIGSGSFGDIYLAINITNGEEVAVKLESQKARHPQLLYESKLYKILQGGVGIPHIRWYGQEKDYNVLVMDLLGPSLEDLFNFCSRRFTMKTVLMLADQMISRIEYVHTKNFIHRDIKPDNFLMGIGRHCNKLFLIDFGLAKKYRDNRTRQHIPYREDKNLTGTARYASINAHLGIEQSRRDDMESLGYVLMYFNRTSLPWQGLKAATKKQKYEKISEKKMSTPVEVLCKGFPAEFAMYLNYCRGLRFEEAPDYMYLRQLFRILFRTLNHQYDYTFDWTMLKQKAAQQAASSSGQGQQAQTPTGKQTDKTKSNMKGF
UniProt P48730: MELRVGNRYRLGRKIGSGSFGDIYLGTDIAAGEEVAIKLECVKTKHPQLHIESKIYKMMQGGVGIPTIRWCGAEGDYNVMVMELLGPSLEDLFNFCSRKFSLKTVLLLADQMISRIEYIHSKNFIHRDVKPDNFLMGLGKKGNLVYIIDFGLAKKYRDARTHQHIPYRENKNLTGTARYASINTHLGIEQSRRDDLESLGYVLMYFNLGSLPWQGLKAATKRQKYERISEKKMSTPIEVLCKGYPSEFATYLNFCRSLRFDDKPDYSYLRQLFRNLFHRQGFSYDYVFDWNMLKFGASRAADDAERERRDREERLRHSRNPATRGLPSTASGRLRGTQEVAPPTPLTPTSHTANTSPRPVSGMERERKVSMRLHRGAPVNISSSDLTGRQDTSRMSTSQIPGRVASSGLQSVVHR
UniProt Q08345: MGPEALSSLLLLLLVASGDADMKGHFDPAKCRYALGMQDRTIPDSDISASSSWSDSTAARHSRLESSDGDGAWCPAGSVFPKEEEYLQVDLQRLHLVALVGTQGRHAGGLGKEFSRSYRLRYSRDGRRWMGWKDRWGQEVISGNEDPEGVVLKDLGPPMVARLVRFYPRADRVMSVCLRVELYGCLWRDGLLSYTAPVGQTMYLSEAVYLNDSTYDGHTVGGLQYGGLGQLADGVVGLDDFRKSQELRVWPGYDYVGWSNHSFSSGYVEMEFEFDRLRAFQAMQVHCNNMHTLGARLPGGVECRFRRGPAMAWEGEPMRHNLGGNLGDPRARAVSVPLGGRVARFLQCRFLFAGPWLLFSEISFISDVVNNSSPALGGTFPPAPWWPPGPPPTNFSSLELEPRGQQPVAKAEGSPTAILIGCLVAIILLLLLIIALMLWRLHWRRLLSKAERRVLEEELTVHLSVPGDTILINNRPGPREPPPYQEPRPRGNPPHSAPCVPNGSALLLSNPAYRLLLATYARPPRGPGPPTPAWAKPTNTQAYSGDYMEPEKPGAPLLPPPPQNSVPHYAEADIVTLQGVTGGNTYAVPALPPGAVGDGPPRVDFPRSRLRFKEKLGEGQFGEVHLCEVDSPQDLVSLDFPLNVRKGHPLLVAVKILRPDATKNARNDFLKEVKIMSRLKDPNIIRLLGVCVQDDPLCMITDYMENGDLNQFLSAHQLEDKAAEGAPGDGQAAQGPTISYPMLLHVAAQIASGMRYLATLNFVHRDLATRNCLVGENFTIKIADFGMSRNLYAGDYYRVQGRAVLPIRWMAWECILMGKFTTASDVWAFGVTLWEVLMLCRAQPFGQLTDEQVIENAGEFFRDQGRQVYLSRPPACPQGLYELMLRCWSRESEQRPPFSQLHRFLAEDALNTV
UniProt Q9Y463, whole entry, looked up: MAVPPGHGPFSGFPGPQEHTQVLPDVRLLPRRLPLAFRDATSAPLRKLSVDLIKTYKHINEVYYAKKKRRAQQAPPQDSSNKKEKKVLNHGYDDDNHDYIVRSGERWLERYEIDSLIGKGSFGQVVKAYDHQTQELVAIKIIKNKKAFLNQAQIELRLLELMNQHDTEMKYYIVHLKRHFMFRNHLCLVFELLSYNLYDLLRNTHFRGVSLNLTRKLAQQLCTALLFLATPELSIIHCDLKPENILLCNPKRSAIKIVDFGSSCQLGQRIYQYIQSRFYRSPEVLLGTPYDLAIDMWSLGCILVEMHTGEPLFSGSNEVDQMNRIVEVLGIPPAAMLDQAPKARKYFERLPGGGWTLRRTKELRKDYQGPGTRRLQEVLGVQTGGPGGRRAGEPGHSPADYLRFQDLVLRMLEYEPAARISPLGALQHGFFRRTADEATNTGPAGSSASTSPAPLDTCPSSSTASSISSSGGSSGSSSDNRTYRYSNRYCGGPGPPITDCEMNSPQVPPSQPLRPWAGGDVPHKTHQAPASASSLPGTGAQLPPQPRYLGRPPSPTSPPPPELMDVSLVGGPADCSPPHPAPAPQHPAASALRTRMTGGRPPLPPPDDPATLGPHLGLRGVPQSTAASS
UniProt Q92630: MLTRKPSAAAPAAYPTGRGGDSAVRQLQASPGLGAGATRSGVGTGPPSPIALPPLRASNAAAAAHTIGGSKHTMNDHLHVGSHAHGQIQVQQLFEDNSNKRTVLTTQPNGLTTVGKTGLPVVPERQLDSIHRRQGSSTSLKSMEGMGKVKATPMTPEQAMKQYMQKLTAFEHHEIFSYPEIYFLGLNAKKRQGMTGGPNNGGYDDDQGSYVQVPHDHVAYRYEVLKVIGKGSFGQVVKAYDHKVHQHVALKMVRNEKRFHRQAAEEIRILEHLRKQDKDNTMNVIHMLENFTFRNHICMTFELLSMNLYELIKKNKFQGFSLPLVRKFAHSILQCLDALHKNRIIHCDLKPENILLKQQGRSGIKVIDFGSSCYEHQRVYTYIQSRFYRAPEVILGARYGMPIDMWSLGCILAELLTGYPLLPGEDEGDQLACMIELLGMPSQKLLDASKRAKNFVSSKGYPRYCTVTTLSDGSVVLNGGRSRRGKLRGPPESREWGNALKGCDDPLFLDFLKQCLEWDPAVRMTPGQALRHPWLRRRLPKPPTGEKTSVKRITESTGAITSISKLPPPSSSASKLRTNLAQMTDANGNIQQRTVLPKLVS

How the values were obtained:
Assay in all cases: number of time points (of 5) at which kinase-Nluc abundance scored as decreased, DMSO-normalised (count); higher = more persistent destabilization
Details in all cases: K562; 2-18 h
CSNK1A1 = CSNK1A1 (UniProt P48729)
CSNK1D = CSNK1D (UniProt P48730)
DDR1 = DDR1 (UniProt Q08345)
DYRK1B = DYRK1B (UniProt Q9Y463)
DYRK2 = DYRK2 (UniProt Q92630)
EGFR = EGFR (UniProt P00533)
EGFR_G719S = EGFR_G719S (UniProt P00533)
EGFR_G719S_T790M = EGFR_G719S_T790M (UniProt P00533)
EGFR_L718V = EGFR_L718V (UniProt P00533)
EGFR_L858R = EGFR_L858R (UniProt P00533)

Structure (SMILES) | number of time points (CSNK1A1) | number of time points (CSNK1D) | number of time points (DDR1) | number of time points (DYRK1B) | number of time points (DYRK2) | number of time points (EGFR) | number of time points (EGFR_G719S) | number of time points (EGFR_G719S_T790M) | number of time points (EGFR_L718V) | number of time points (EGFR_L858R)
Cn1nccc1Nc1nccc(-c2cc3c(s2)C(C)(C)N(CCN2CCOCC2)C3=O)n1 (10 µM) | 0 | 0 | 0 | 0 | 0 | 0 | 0 | 0 | 0 | 0
CCc1cc(O)c(F)cc1-c1ccc2c(-c3nc4c([nH]3)CN(C3CCN(C)CC3)CC4)n[nH]c2c1 [JAK-IN-5 (hydrochloride)] (2 µM) | 1 | 0 | 4 | 0 | 4 | 0 | 1 | 0 | 0 | 2
O=C(O)CCc1ccc(O)c(O)c1 [Dihydrocaffeic acid] (10 µM) | 0 | 0 | 0 | 0 | 0 | 0 | 0 | 0 | 0 | 0
O=C(Nc1cccnc1)c1cc(C(=O)c2c(F)cccc2Br)c[nH]1 (10 µM) | 0 | 0 | 0 | 0 | 0 | 0 | 0 | 0 | 0 | 0
Nc1ncnc2c1ncn2[C@@H]1O[C@H](CO)C[C@H]1O [Cordycepin] (10 µM) | 0 | 0 | 0 | 0 | 0 | 0 | 0 | 0 | 0 | 0
CC1=C2C(=O)O[C@@H](c3ccoc3)[C@]2(C)CCC1 [Fraxinellone] (10 µM) | 0 | 0 | 0 | 0 | 0 | 0 | 0 | 0 | 0 | 0
CC(C)(NS(=O)(=O)c1ccc2c(Cl)cnc(N=C(N)N)c2c1)C(=O)O (10 µM) | 0 | 0 | 0 | 0 | 0 | 0 | 0 | 0 | 0 | 0
CNC(=O)c1ccc(-c2cnc3cnc(C(=O)N(C)c4ccc(Cl)cc4)cn23)cc1 (2.5 µM) | 0 | 0 | 0 | 0 | 0 | 0 | 0 | 0 | 0 | 0
Fc1ccc(-c2nc(-c3c(F)cccc3F)[nH]c2-c2ccncc2)cc1 (10 µM) | 0 | 0 | 0 | 0 | 0 | 0 | 0 | 0 | 0 | 0
C=C(CCC=C(C)C)[C@H]1CC[C@]2(C)[C@@H]1[C@H](O)C[C@@H]1[C@@]3(C)CC[C@H](O[C@@H]4O[C@H](CO)[C@@H](O)[C@H](O)[C@H]4O[C@@H]4O[C@H](CO)[C@@H](O)[C@H](O)[C@H]4O)C(C)(C)[C@@H]3CC[C@]12C [Ginsenoside Rk1] (10 µM) | 0 | 0 | 0 | 0 | 0 | 0 | 0 | 0 | 0 | 0
C=CC(=O)Nc1cccc(C)c1Nc1ncc2cc(-c3c(Cl)c(OC)cc(OC)c3Cl)ccc2n1 (2.5 µM) | 0 | 0 | 0 | 0 | 0 | 0 | 0 | 0 | 0 | 0
CN(CCNc1ccc2ncc(-c3ccc(C(N)=O)cc3)n2n1)C(=O)OC(C)(C)C (10 µM) | 0 | 0 | 0 | 0 | 0 | 0 | 1 | 0 | 0 | 0
N#Cc1cccc(-c2c[nH]c3ncnc(N4CCOCC4)c23)c1 (10 µM) | 0 | 0 | 0 | 0 | 0 | 0 | 0 | 0 | 0 | 0
CC/C=C\C/C=C\C/C=C\CCCCCCCC(=O)O [α-Linolenic acid] (10 µM) | 0 | 0 | 0 | 0 | 0 | 0 | 0 | 0 | 0 | 0
Fc1ccc(-c2nc(-c3ccccc3F)[nH]c2-c2ccncc2)cc1 (2.5 µM) | 0 | 0 | 0 | 0 | 0 | 0 | 0 | 0 | 0 | 0
Cc1cc(Nc2cc(Cl)nc(Oc3ccc([N+](=O)[O-])cc3)n2)n[nH]1 [Autophinib] (2.5 µM) | 0 | 0 | 0 | 0 | 0 | 0 | 2 | 0 | 0 | 0
C[C@]1(O)CCC[C@@H]1n1c(=O)c(C(F)F)cc2cnc(NC3CCN(S(C)(=O)=O)CC3)nc21 (10 µM) | 0 | 0 | 0 | 0 | 0 | 0 | 0 | 0 | 0 | 0

3 compounds from above, sorted by SMILES length, rising.
Structure (SMILES) | number of time points (CSNK1A1) | number of time points (CSNK1D) | number of time points (DDR1) | number of time points (DYRK1B) | number of time points (DYRK2) | number of time points (EGFR) | number of time points (EGFR_G719S) | number of time points (EGFR_G719S_T790M) | number of time points (EGFR_L718V) | number of time points (EGFR_L858R)
Nc1ncnc2c1ncn2[C@@H]1O[C@H](CO)C[C@H]1O [Cordycepin] (10 µM) | 0 | 0 | 0 | 0 | 0 | 0 | 0 | 0 | 0 | 0
Cc1cc(Nc2cc(Cl)nc(Oc3ccc([N+](=O)[O-])cc3)n2)n[nH]1 [Autophinib] (2.5 µM) | 0 | 0 | 0 | 0 | 0 | 0 | 2 | 0 | 0 | 0
C=C(CCC=C(C)C)[C@H]1CC[C@]2(C)[C@@H]1[C@H](O)C[C@@H]1[C@@]3(C)CC[C@H](O[C@@H]4O[C@H](CO)[C@@H](O)[C@H](O)[C@H]4O[C@@H]4O[C@H](CO)[C@@H](O)[C@H](O)[C@H]4O)C(C)(C)[C@@H]3CC[C@]12C [Ginsenoside Rk1] (10 µM) | 0 | 0 | 0 | 0 | 0 | 0 | 0 | 0 | 0 | 0
